Among the data in paper PMC5282884 are binding values, retold here.

For assay [1], the target named is T1, endogenous RORβ (human (endogenous in P1 primary colorectal cancer cells)) (UniProt Q92753).
T1 sequence: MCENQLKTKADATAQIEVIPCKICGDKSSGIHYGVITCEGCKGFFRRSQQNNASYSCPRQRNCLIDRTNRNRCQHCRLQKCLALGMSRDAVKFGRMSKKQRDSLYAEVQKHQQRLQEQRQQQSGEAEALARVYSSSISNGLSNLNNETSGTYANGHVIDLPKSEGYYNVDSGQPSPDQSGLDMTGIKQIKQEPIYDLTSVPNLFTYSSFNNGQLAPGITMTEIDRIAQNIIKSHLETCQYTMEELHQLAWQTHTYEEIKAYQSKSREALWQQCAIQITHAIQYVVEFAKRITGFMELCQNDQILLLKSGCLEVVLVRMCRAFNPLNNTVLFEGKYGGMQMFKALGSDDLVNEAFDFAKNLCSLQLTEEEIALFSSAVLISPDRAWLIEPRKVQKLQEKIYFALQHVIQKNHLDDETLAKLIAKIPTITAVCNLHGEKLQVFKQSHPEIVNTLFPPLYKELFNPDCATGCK
The assay is described as follows: co-IP; endogenous proteins; lysates from P1 cells without treatment with protease inhibitor cocktails; precipitated with RORβ antibodies or mouse IgG (control), western blot with anti-NRIP2 antibodies.

Assay [2] deals with T2, Nuclear Receptor-Interacting Protein 2 (NRIP2) with Myc-Tag (human) (UniProt Q9BQI9).
T2 sequence: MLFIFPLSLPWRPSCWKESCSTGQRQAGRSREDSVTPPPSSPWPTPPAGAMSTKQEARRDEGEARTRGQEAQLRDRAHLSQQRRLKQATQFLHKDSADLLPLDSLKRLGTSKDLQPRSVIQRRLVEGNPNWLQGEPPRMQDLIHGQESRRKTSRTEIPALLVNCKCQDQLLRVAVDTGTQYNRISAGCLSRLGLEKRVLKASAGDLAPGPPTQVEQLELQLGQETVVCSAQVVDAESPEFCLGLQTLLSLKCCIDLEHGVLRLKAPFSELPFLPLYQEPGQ
The assay is described as follows: co-IP; lysates from NRIP2-overexpressing SGC cancer cells or control cells; precipitated with myc-tag antibody agarose beads, western blot with anti-RORβ antibodies; normal rabbit IgG agarose beads as negative control; RIPA lysis buffer with 1% NP-40, 0.25% deoxycholic acid, 5 mM DTT, 4 °C. (In general: In western blotting, separated proteins are transferred to a membrane and probed.)

These are yes or no findings as the source states them, for the method shown. Binding seen in cells or lysates may run through a third protein. Some binding calls cover weakened binding; strength is not graded here. For some assays here: Tags and fused reporters may be left off the sequences shown.

B1: endogenous NRIP2 (protein, UniProt Q9BQI9 1-281)
chain: T2 sequence
As to B1, the binding entry in assay [1] is given as “binds”.

B2: retinoic acid-related orphan receptor β (RORβ) (protein, UniProt Q92753 1-470)
chain: T1 sequence
As for B2, the binding entry in assay [2] is given as “binds”.
